This note sets out measurements from paper PMC9202211.

No constants are given. Whether binding was seen depends on the method and setting. In cells and extracts the contact can be indirect. Some binding calls cover weakened binding; strength is not graded here.

This assay concerns the target T1, Gamma-aminobutyric acid type A receptor subunit delta (human (endogenous in Eca-109)) (UniProt O14764).
T1 sequence: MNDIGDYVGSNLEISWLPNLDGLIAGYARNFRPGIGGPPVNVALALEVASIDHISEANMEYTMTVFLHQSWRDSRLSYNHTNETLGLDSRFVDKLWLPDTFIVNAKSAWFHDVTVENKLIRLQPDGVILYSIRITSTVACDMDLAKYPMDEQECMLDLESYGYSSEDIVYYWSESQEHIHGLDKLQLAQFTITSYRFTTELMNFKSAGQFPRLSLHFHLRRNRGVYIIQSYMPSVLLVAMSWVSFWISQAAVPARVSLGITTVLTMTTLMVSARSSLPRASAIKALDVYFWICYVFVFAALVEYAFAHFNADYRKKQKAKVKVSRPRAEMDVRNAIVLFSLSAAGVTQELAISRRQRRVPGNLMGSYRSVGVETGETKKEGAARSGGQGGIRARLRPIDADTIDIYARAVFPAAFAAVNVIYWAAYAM
Description: co-IP; 1.0 mg total protein of Eca-109 cell lysate incubated with anti-GABRD at 4 °C for 2 h; protein A/G beads; western blot for DEPDC1B. In general terms: A western blot detects proteins with antibodies after separation by electrophoresis.

As for “…, EGL-10, … (DEP) domain-containing 1B (from UniProt Q8WUY9 1-529)”, the binding entry is “binds”.
